PubChem BioAssay AID1259424 – University of Nebraska Medical Center | 2018

Test: 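Find knockdowns that reproduce the expression shifts seen after KSR1 loss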 (primary screen)
Cell system: human HCT116 colon cancer cells
Knock-down reagent: siRNA pool against human genes, 50 nM
Measurement: 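Log2 levels of six mRNAs (branched-DNA multiplex), adjusted by two reference genes and the non-targeting median, then scored against the average KSR1 knockdown pattern as Pearson r and euclidean distance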
Direction: mean correlation with KSR1 profile and KSR1 correlation: higher = expression change more like KSR1 knockdown; mean distance from KSR1 profile: higher = expression change less like KSR1 knockdown
The whole screen tested about 14,000 reagents; this is an unselected part. 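Higher correlation or smaller distance means closer resemblance to KSR1 loss; control wells, including KSR1 knockdowns, recur on many plates.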 The record does not give: the time to read-out.

| gene | PubChem SID | mean correlation with KSR1 profile | mean distance from KSR1 profile | KSR1 correlation, replicate 1 | KSR1 correlation, replicate 2 | KSR1 correlation, replicate 3 |
| --- | --- | --- | --- | --- | --- | --- |
| ARGLU1 (GeneID 55082) | SID364000706 | -0.289 | 2.65 | -0.325 | -0.267 | -0.197 |
| SLC44A4 (GeneID 80736) | SID364003349 | 0.0177 | 3.55 | -0.179 | 0.0112 | -0.0706 |
| VIPAS39 (GeneID 63894) | SID364002303 | 0.188 | 2.18 | 0.0537 | 0.248 | 0.191 |
| ITFG1 (GeneID 81533) | SID364003442 | 0.432 | 2.34 | 0.414 | 0.436 | 0.316 |
| GRHL3 (GeneID 57822) | SID364002067 | -0.435 | 2.92 | -0.0258 | -0.687 | -0.367 |
| LSM3 (GeneID 27258) | SID363998875 | -0.274 | 3.07 | -0.652 | -0.543 | -0.0466 |
| DNAJA1 (GeneID 3301) | SID363992796 | 0.209 | 2.58 | 0.0323 | 0.0559 | 0.441 |
| ZNF532 (GeneID 55205) | SID364000852 | 0.56 | 1.53 | 0.518 | 0.513 | 0.41 |
| S100A10 (GeneID 6281) | SID363994117 | -0.78 | 2.66 | -0.771 | -0.807 | -0.771 |
| LINC01749 (GeneID 63930) | SID364002327 | -0.59 | 1.88 | -0.603 | -0.494 | -0.542 |
| TMA16 (GeneID 55319) | SID364000997 | -0.116 | 2.75 | -0.203 | -0.172 | -0.0517 |
| LNPK (GeneID 80856) | SID364003393 | 0.427 | 1.4 | 0.194 | 0.348 | 0.432 |
| POMGNT1 (GeneID 55624) | SID364000486 | 0.0273 | 1.72 | 0.216 | -0.222 | -0.417 |
| MT1E (GeneID 4493) | SID364004870 | -0.55 | 2.09 | -0.496 | -0.557 | -0.657 |
| ANGPT2 (GeneID 285) | SID363992439 | -0.523 | 3.26 | -0.518 | -0.525 | -0.616 |
| EPC2 (GeneID 26122) | SID363999611 | -0.0545 | 1.27 | -0.246 | 0.234 | 0.0723 |
| STRIP1 (GeneID 85369) | SID364004316 | 0.265 | 3.12 | 0.25 | 0.102 | 0.0927 |
| TMEM140 (GeneID 55281) | SID364000952 | -0.304 | 2.41 | -0.182 | -0.369 | -0.443 |
| USP35 (GeneID 57558) | SID364005337 | 0.708 | 0.724 | 0.673 | 0.524 | 0.566 |
| DVL3 (GeneID 1857) | SID363995405 | -0.805 | 2.56 | -0.809 | -0.647 | -0.898 |
| CUL3 (GeneID 8452) | SID363994670 | -0.934 | 1.95 | -0.748 | -0.967 | -0.871 |
| DMAC2 (GeneID 55101) | SID364000724 | 0.15 | 3.46 | 0.31 | -0.0765 | 0.0388 |
| PCDHB6 (GeneID 56130) | SID364001266 | 0.696 | 1.36 | 0.694 | 0.626 | 0.746 |
| GNAZ (GeneID 2781) | SID363993280 | 0.755 | 1.57 | 0.695 | 0.866 | 0.708 |
| LRCH1 (GeneID 23143) | SID363999311 | 0.248 | 1.41 | 0.15 | 0.337 | 0.0385 |
| GLI2 (GeneID 2736) | SID363996190 | 0.0428 | 3.06 | 0.105 | -0.175 | 0.369 |
| MYBPC1 (GeneID 4604) | SID363993639 | 0.718 | 1.52 | 0.818 | 0.334 | 0.63 |
| RARG (GeneID 5916) | SID363992250 | 0.31 | 1.23 | 0.0164 | 0.505 | -0.266 |
| NDUFS2 (GeneID 4720) | SID363995521 | 0.12 | 1.76 | 0.133 | 0.0933 | 0.0529 |
| TNFRSF1A (GeneID 7132) | SID363992362 | -0.0289 | 3.01 | -0.0561 | 0.143 | -0.217 |
| IL1RAP (GeneID 3556) | SID363993383 | -0.123 | 1.42 | -0.0493 | 0.142 | -0.322 |
| MARCKS (GeneID 4082) | SID363993539 | -0.361 | 4.65 | -0.296 | -0.436 | -0.357 |
| TKTL1 (GeneID 8277) | SID363998175 | 0.561 | 1.32 | 0.391 | 0.394 | 0.505 |
| CRHBP (GeneID 1393) | SID363993095 | -0.79 | 2.09 | -0.685 | -0.826 | -0.611 |
| RACK1 (GeneID 10399) | SID363996941 | -0.0448 | 1.64 | 0.00708 | -0.218 | -0.157 |
| ELMO2 (GeneID 63916) | SID364002316 | -0.554 | 2.69 | -0.627 | -0.441 | -0.525 |
| AKIP1 (GeneID 56672) | SID364001745 | -0.618 | 5.69 | -0.317 | -0.365 | -0.51 |
| TMEM40 (GeneID 55287) | SID364000962 | -0.577 | 2.67 | -0.431 | -0.664 | -0.689 |
| ACKR2 (GeneID 1238) | SID363992580 | 0.686 | 1.99 | -0.686 | 0.805 | 0.531 |
| SLC4A3 (GeneID 6508) | SID363996007 | -0.346 | 2.1 | -0.08 | -0.461 | -0.328 |
| TAS2R1 (GeneID 50834) | SID364001430 | 0.441 | 1.69 | 0.402 | 0.509 | 0.594 |
| PRR15L (GeneID 79170) | SID364002793 | -0.144 | 2.1 | -0.398 | -0.337 | -0.1 |
| CD34 (GeneID 947) | SID363992992 | 0.577 | 3.01 | 0.551 | 0.642 | 0.688 |
| TTC31 (GeneID 64427) | SID364002477 | -0.408 | 1.8 | -0.431 | -0.426 | -0.492 |
| SPATA16 (GeneID 83893) | SID364003724 | 0.844 | 2.09 | 0.917 | 0.662 | 0.71 |
| PRG4 (GeneID 10216) | SID363996685 | -0.0468 | 1.99 | -0.175 | -0.051 | -0.0258 |
| CTTN (GeneID 2017) | SID363996153 | -0.444 | 3.41 | -0.222 | -0.522 | -0.5 |
| HPCA (GeneID 3208) | SID363993347 | 0.167 | 2.26 | 0.000773 | 0.0979 | 0.0471 |
| CDK5R2 (GeneID 8941) | SID363994991 | 0.42 | 1.2 | 0.425 | -0.401 | -0.279 |
| HSPC047 (retired record) (GeneID 29060) | SID363998611 | -0.568 | 3.16 | -0.551 | -0.478 | -0.632 |

Part of the list above in another layout.
gene | PubChem SID | mean correlation with KSR1 profile | mean distance from KSR1 profile | KSR1 correlation, replicate 1 | KSR1 correlation, replicate 2 | KSR1 correlation, replicate 3
TAS2R1 (GeneID 50834) | SID364001430 | 0.441 | 1.69 | 0.402 | 0.509 | 0.594
PRR15L (GeneID 79170) | SID364002793 | -0.144 | 2.1 | -0.398 | -0.337 | -0.1
CD34 (GeneID 947) | SID363992992 | 0.577 | 3.01 | 0.551 | 0.642 | 0.688
TTC31 (GeneID 64427) | SID364002477 | -0.408 | 1.8 | -0.431 | -0.426 | -0.492
SPATA16 (GeneID 83893) | SID364003724 | 0.844 | 2.09 | 0.917 | 0.662 | 0.71
PRG4 (GeneID 10216) | SID363996685 | -0.0468 | 1.99 | -0.175 | -0.051 | -0.0258
CTTN (GeneID 2017) | SID363996153 | -0.444 | 3.41 | -0.222 | -0.522 | -0.5
HPCA (GeneID 3208) | SID363993347 | 0.167 | 2.26 | 0.000773 | 0.0979 | 0.0471
